Data published in patent publication US10407465B2, “Peptides enhancing neuronal outgrowth and application thereof” (Schweitzer Biotech Company Ltd., priority 2014, dated 2019).
Part of at least one peptide drawing is inferred or uncertain, most often the ends. No end group written: not given here.

How the values were obtained:
[1] = tested on: Sco-induced amnesia animal model; test: Inhibitory avoidance learning task, scopolamine-induced memory deficits; format: in vivo, Sprague-Dawley rats; conditions: 7 days after footshock, vs Sco, P<0.05
[2] = tested on: adult male naïve Sprague-Dawley rats; test: Water maze learning in naive rats; format: in vivo; conditions: from 14 days before test, vs 0.5% DMSO/PBS, p<0.01
aged rats [3] = test: Water maze learning in aged rats; format: in vivo, Sprague-Dawley rats; conditions: 18-month-old rats, vs negative control, from Day 1, p<0.01
aged rats [4] = test: Survival surveillance of aged rats; format: in vivo, Sprague-Dawley rats
[5] = tested on: Sco-induced amnesia animal model; test: Water maze learning, scopolamine-induced memory impairment; format: in vivo, Sprague-Dawley rats; conditions: from Day 3; for escape latency vs Sco group: P<0.01
Procedure: (§1) A plastic circular pool 183 cm in diameter was filled with water (25±2° C.). A circular platform was placed at a specific location from the edge of the pool and submerged below the water surface. Water was made cloudy by adding toxic-free dye. Distinctive visual cues were set on the wall. For spatial learning, animals were subjected to 3 trials per day, with one trial early in the morning, one trial at noon, and another in the late afternoon. The training procedure lasted 4 days, and a total of 12 trials were given. The rats were positioned at different starting points spaced equally around the perimeter of the pool in random order. They had 60 seconds to swim in the pool. If a rat could not find the platform, it was guided to the platform and was allowed to remain there for 20 seconds. The time each animal took to reach the platform was recorded as the escape latency. A probe trial of 60 seconds was given on Day 5 to test their memory retention. The rats were placed in the pool with the platform removed, and the time they spent in each quadrant (Quadrants 1, 2, 3, and 4) was recorded. The longer a rat stayed in the target quadrant (quadrant 4), the better memory the rat had. At the end of the experiment, the rats were subjected to visible platform learning. For visible platform learning, a flag was mounted on the platform, and the platform was raised above the surface of the water. The time the rats found the platform was recorded. In addition, no dye was added in the pool, so that the animals could see the location of the platform from the water.
(§2) Then, behavioral experiments were conducted, and the injection program with scopolamine continued through the experimentation. The injection volume was 1 μL/g of body weight. The scopolamine injection was performed 30 minutes before behavioral experiments every morning, and the C5 peptide or C6 peptide injection was conducted once daily at 5:00 PM 1 day prior.
(§3) Method of water maze learning is described in Example 4.

[6] = tested on: embryonic hippocampal primary neurons; test: Scratch test for neuronal regeneration; format: cell-based, Sprague-Dawley rats; conditions: 10^−9 M after scratch at DIV5; 72 hours; vs PBS
[7] = tested on: embryonic hippocampal primary neurons; test: Neuronal outgrowth assay with immunocytochemistry (anti-Tau, anti-MAP2, DAPI); format: cell-based, Sprague-Dawley rats; conditions: for average number of third order axon branches: negative control 0.7; for lengths of the first order axon branches: vs negative control; for axon outgrowth: L-form peptide 10^−9 M, 10^−12 M, 10^−15 M, treatment at 3 DIV for 3 days, vs PBS negative control
Procedure: In order to culture embryonic hippocampal primary neurons, pregnant Sprague-Dawley rats were purchased from the National Laboratory Center in Taiwan (Taipei, Taiwan). The hippocampal tissue from the embryos of the Sprague-Dawley rats (embryonic day 19, E19) was dissociated with enzyme and plated onto poly-L-lysine-coated coverslips with a minimal essential medium containing 5% calf serum, 5% horse serum, and 50 ng/mL insulin-transferrin-selenite (Sigma-Aldrich, St. Louis, Mo., USA). After plating, the medium was replaced with 2% of B27-neurobasal medium (Invitrogen, Carlsbad, Calif., USA) containing 0.5 mM glutamine and […]. Embryonic hippocampal primary neurons were incubated at 37° C., 5% CO2 for further experimental treatment.
Primary hippocampal neuron cultures at 3 days in vitro (at DIV3) were treated with 10^−9 M, 10^−12M, 10^−15 M C5 peptide (L-form), 10^−9 M, 10^−12M, 10^−15 M C6 peptide (L-form), 10^−9 M P1 peptide (L-form), 10^−9 M P2 peptide (L-form), 10^−9 M P3 peptide (L-form), 10^−9 M P4 peptide (L-form), 10^−9 M P5 peptide (L-form), 10^−9 M P6 peptide (L-form), 10^−9 M C5 peptide (D-form), and 10^−12 C6 peptide (D-form), respectively, for 3 days, followed by immunocytochemistry. Embryonic hippocampal primary neurons of negative control were treated with PBS. Each treatment condition was run in 3 replicates.
Cultured hippocampal neurons were fixed with 4% paraformaldehyde and permeablized with 0.1% Triton X-100 at room temperature (RT). Cultures were then incubated in the primary rabbit anti-Tau antibody (a selective marker for axons, Millipore, Mass., USA) and the primary mouse anti-MAP2 antibody (microtubule-associated protein-2, which is a selective marker for dendrites, Millipore) for 1 hour at RT. After wash, cells were incubated with Alexa Fluor® 488 goat anti-rabbit secondary antibody (green fluorescence, Abcam Plc., UK) and Alexa Fluor® 594 goat anti-mouse secondary antibody (red fluorescence, Abcam Plc.) for 1 hour at RT. Then, nuclei were stained with 4′,6-diamidino-2-phenylindole (DAPI, blue fluorescence, Vector Laboratories, USA). After that, coverslips were mounted on the cells, and images were obtained by using an Axio Observer D1 microscope (Zeiss, Jena, Germany) and analyzed by ImageJ software (Inage Processing and Analysis in Java, National Institutes of Health, USA). Neuronal process longer than 10 μm is defined as a neurite.
An axon extending from the cell body of a neuron is defined as a first order axon branch; an axon extending from a first order axon branch is defined as a second order axon branch, and an axon extending from a second order axon branch is defined as a third order axon branch, et cetera (FIG. 3A). Only axons longer than 10 μm are counted.

[8] = tested on: Sco-induced amnesia animal model; test: Step-down passive avoidance test, scopolamine-induced memory deficits; format: in vivo, Sprague-Dawley rats; conditions: 1 day after footshock, vs Sco; for retention time on the stage: P<0.05
[9] = tested on: D-Galactose induced aging model rats; test: Water maze learning, D-galactose induced aging; format: in vivo, Sprague-Dawley rats; conditions: for escape latency vs D-Galactose group: from Day 2, p<0.01; for escape latency vs negative control: p>0.05
Procedure: as §1
Sprague-Dawley rats at the age of 7 weeks were randomly divided into negative control group (0.9% NaCl), D-galactose-injected group (D-galactose), C5 peptide and D-galactose-injected group (C5+D-galactose), and C6 peptide and D-galactose-injected group (C6+D-galactose). Rats in the 4 groups were intraperitoneally injected with 0.9% NaCl (negative control group and D-galactose group), C5 peptide (54 μg/kg/day, C5+D-galactose group), and C6 peptide (5.4 μg/kg/day, C6+D-galactose group), respectively, for 7 consecutive days. After that, rats in the 4 groups were intraperitoneally injected with 0.9% NaCl (negative control group), 0.9% NaCl and D-galactose (150 mg/kg/day)(D-galactose group), C5 peptide (54 μg/kg/day) and D-galactose (150 mg/kg/day) (C5+D-galactose group), and C6 peptide (5.4 μg/kg/day) and D-galactose (150 mg/kg/day) (C6+D-galactose group), respectively, for 9 consecutive weeks, and then were subjected to water maze tasks. The injection volume was 1 μL/g of body weight.
as §3

[10] = tested on: Sco-induced amnesia animal model; test: Novel object recognition learning, scopolamine-induced memory deficits; format: in vivo, Sprague-Dawley rats; conditions: 3, 8 and 24 hours after, P<0.05
Procedure: During familiarization, rats were allowed to explore 2 identical objects in an open field box (90×70×60 cm) for 5 min. The criteria used for exploration were a distance less than 1.5 cm between the rat and the object or direct contact with the object. During the retention test given 3 hours and 24 hours later, the rats were returned to the same box, but one of the familiar objects was replaced with a novel object of approximately the same size. The time that each rat spent exploring the 2 objects during a 5-min period was recorded. The rats placed in the open field box without any objects for 5 min were assigned to the non-trained group.
as §2, with “Both C5 peptide and C6 peptide ameliorate scopolamine-induced memory deficits. […] Then,” for “Then,”, “prior. […] Three (3) hours, 8 hours and 24 hours after, a novel object (NO) replaced the RO.” for “prior.”

[11] = tested on: MPTP-mouse model of Parkinson's disease; test: Rotarod performance test; format: in vivo, C57BL/6 male mice; conditions: C6 peptide 10.7 μg/kg i.p. (3 weeks, then 1 week with MPTP 30 mg/kg); negative control 778.5 seconds; p<0.05 vs MPTP group
Procedure: C57BL/6 male mice at the age of 5 weeks were randomly divided into 3 groups and intraperitoneally injected with PBS (negative control), MPTP (30 mg/kg)(MPTP group), and C6 peptide (10.7 μg/kg) and MPTP (30 mg/kg)(C6+MPTP group), respectively. The injection volume was calculated based on the body weight of each mouse everyday. Mice of the C6+MPTP group were injected C6 peptide for 3 weeks prior to injection of C6 peptide and MPTP for 1 week, and then subjected to rotarod performance test.
Rotarod performance tests were conducted to measure the coordination of mice. Mice were placed on the rod and ran at 2 rpm constant speed for 2 minutes in order to adapt to the rod. After that, rod was started to accelerate to 20 rpm (within 5 minutes) and sustained for 15 minutes. The time (latency) at which each mouse fell off the rod was recorded.

[12] = C5 peptide 54 μg/kg/day i.p. + scopolamine 1.5 mg/kg/day
[13] = C5 peptide 54 μg/kg/day + scopolamine 1.5 mg/kg/day
[14] = C5 peptide 54 μg/kg/day i.p. + D-galactose 150 mg/kg/day for 9 weeks
[15] = C6 peptide 5.4 μg/kg/day i.p. + scopolamine 1.5 mg/kg/day
[16] = C6 peptide 5.4 μg/kg/day + scopolamine 1.5 mg/kg/day
[17] = C6 peptide 5.4 μg/kg/day i.p. + D-galactose 150 mg/kg/day for 9 weeks

**Q.** For NAIPQ [C5 peptide, NAIPQ], which “retention time in the illuminated chamber” value [1, 12] is on record?
**A.** longer retention time in the illuminated chamber

**Q.** And the “escape latency (time finding the hidden platform)” value ([2]; C5 peptide 54 μg/kg and 270 μg/kg i.p.)?
**A.** significantly less time finding the hidden platform

**Q.** And the “escape latency in finding the hidden platform” value (aged rats [3]; C5 peptide 54 μg/kg/day for 6 months)?
**A.** shorter escape latency

**Q.** What about the survival rates (aged rats [4]; C5 peptide 54 μg/kg/day from 12 months old, followed to 22 months, vs negative control) of the same substance?
**A.** higher survival rates

**Q.** And the “time to find hidden platform vs negative control group” value [5, 12]?
**A.** found the hidden platform faster than rats in negative control group

**Q.** And the “escape latency vs Sco group” value [5, 12]?
**A.** significant improvement in escape latency

**Q.** And the “axons growing across the scratch borders (axon regeneration)” value [6]?
**A.** more and longer axons growing across the scratch borders

**Q.** What about the “average number of third order axon branches” value ([7]; 10^−9 M, p<0.01) of the same substance?
**A.** 3

**Q.** What about the “lengths of the first order axon branches” value ([7]; 10^−9 M, p<0.01) of the same substance?
**A.** longer

**Q.** And the axon outgrowth [7]?
**A.** enhanced axon outgrowth

**Q.** What about the “stepping down (jumping error number)” value [8, 13] of the same substance?
**A.** stepped down less

**Q.** What about the “retention time on the stage” value [8, 13] of the same substance?
**A.** longer retention time on the stage

**Q.** And the “escape latency vs D-Galactose group” value [9, 14]?
**A.** significant improvement in escape latency

**Q.** What about the “escape latency vs negative control” value [9, 14] of the same substance?
**A.** no significant difference

**Q.** What about the “exploratory preference for the novel object (NO)” value [10, 13] of the same substance?
**A.** showed a preference for the NO

**Q.** Which results are given for NPSPQ [C6 peptide, NPSPQ]?
**A.** retention time in the illuminated chamber [1, 15]: longer retention time in the illuminated chamber; escape latency (time finding the hidden platform) ([2]; C6 peptide 5.4 μg/kg and 27 μg/kg i.p.): significantly less time finding the hidden platform; escape latency in finding the hidden platform (aged rats [3]; C6 peptide 5.4 μg/kg/day for 6 months): shorter escape latency; survival surveillance (aged rats [4]; C6 peptide 5.4 μg/kg/day from 12 months old, at the age of 22 months): 100%; time to find hidden platform vs negative control group [5, 15]: found the hidden platform faster than rats in negative control group; escape latency vs Sco group [5, 15]: significant improvement in escape latency; axons growing across the scratch borders (axon regeneration) [6]: more and longer axons growing across the scratch borders; average latency to fall [11]: 261 s; average number of third order axon branches ([7]; 10^−9 M, p<0.01): 4.9; average number of second order axon branches ([7]; 10^−9 M, negative control 4.3, p<0.01): 6.5; lengths of the first order axon branches ([7]; 10^−9 M, p<0.01): longer; axon outgrowth [7]: enhanced axon outgrowth; stepping down (jumping error number) [8, 16]: stepped down less; retention time on the stage [8, 16]: longer retention time on the stage; escape latency vs D-Galactose group [9, 17]: significant improvement in escape latency; escape latency vs negative control [9, 17]: no significant difference; exploratory preference for the novel object (NO) [10, 16]: showed a preference for the NO
